Laboratory results reported in PubChem BioAssay AID1347426 (Functional Genomics Laboratory (NCATS/FGL), 2020).
In all, about 31,000 sequences went through this assay and about 1,400 (4.5%) were called active.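 Rule for the calls: active = median seed-adjusted z-score above 1 or below -1; inactive = the rest.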 Some of the results follow.

Experiment: Novel Modifiers of Survival Motor Neuron (SMN) Protein: Gene Identification via Genome-wide siRNA Screen;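 note: luminescence tracks full-length SMN protein made from the SMN2 reporter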
Details: HEK293T SMN2-luciferase reporter, siRNA knockdown, 72 h; actives lie on both sides
Method in brief: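 HEK293T cells stably expressing an SMN2 splicing/cDNA-luciferase reporter were reverse-transfected with a druggable-genome siRNA library and read by luminescence at 72 hours; hits defined by MAD score above 1.0 or below -1.0.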

Row | Sequence | median seed-adjusted z-score
1 | GGAAAUUGAGAAUCUAGAATT against SLK | inactive: 0.0479
2 | CGGCUGCAUGAUUACGUUATT against RAB26 | inactive: 0.171
3 | GGUAUGAUCUUGUCCUGAUTT against LIPH | inactive: 0.0437
4 | GCGCUAAGCUGCAACGAAATT against LHX2 | inactive: 0.464
5 | CGACAACCACUUCAAUUAUTT against CHN2 | inactive: -0.478
6 | GCUGGAUUGUGAAUCGCAUTT against MYO3B | inactive: 0.51
7 | GGUAAUACGUGAAAGCAAATT against IGF1 | inactive: 0.559
8 | GAUUUGUCGUCAUUAAUCATT against CCT6B | inactive: 0
9 | GAGUCUGCUUGGGUGAAUATT against SLC7A2 | inactive: -0.245
10 | CACUCCAUCUCUUACAAGATT against KCNK9 | inactive: 0.735
11 | GGCUUAUAAGGAUUUGUAUTT against DPYSL3 | inactive: -0.226
12 | CAUUGAACAUUGAGUGUUUTT against HSPA4L | inactive: 0.288
13 | GCCUGGUACUCCUCUAUAUTT against CYP3A43 | inactive: -0.599
14 | GUAUGGAUUUGUUAACUAUTT against ELAVL4 | inactive: -0.0523
15 | GAAGCAGAGGACAACAUGATT against SNRPD3 | active: -2.69
16 | GUGACGAAAUGGAACAAGATT against EIF2AK3 | inactive: -0.0208
17 | AGAAUCGUGUGGAAAAAGATT against PARK7 | inactive: -0.357
18 | GCGAGAGAGUUGUACAACATT against ITPR2 | inactive: 0
19 | CAAAUAAGCUCAGAACAAATT against DOC2B | inactive: -0.423
20 | GACCAUGUAUAGGAGCGAATT against SLC25A19 | inactive: -0.104
21 | CUUCUGAACUCGGUCCUCATT against SLC5A5 | active: 1.01
22 | GCCGAUUUCUACGAGCAGATT against NAGLU | inactive: -0.526
23 | GACUCGACAGGUUUUUAUATT against CDC2L2 | inactive: 0.153

Three entries picked at random from the list so far, as already listed:
Row | Sequence | median seed-adjusted z-score
1 | GGAAAUUGAGAAUCUAGAATT against SLK | inactive: 0.0479
3 | GGUAUGAUCUUGUCCUGAUTT against LIPH | inactive: 0.0437
5 | CGACAACCACUUCAAUUAUTT against CHN2 | inactive: -0.478

More results:

Row | Sequence | median seed-adjusted z-score
24 | AGCUGUCAGUGAAGCUCUATT against C8G | inactive: -0.622
25 | GCAUAAUAAGGGUAGGGAUTT against DDX53 | inactive: -0.136
26 | GGAAGAUUACAACCGAACATT against ARHGEF12 | inactive: 0.136
27 | GAAUAUCCGAGGGAAGGUATT against UBN1 | inactive: 0.0782
28 | GAAUCCCACAGGAUCAUUATT against GRB10 | inactive: -0.0341
29 | CCACGCUGAUCUGAAGAUATT against LRPAP1 | inactive: -0.0616
30 | GCCUAGAACAACUAACGAATT against RB1CC1 | inactive: 0.0878
31 | CGAAUUAUGCUGUAUCAUUTT against ACTR6 | inactive: 0.189
32 | CCUCGAAACCGACGAGAAATT against RBMXL2 | inactive: -0.387
33 | GGACCAUAAUCAACAUAGATT against ZNF585B | inactive: 0.158
34 | GAACCAGGUUGCAAGAUUUTT against RUNX1 | inactive: -0.0264
35 | GGUGGAUGAUGCUAGUGUATT against GALNT3 | inactive: -0.0426
36 | CAGUCUUCUUAGAAGCUCUTT against SERTAD3 | inactive: -0.216
37 | AGACCACGACUCCAGCUUATT against EIF4H | inactive: 0.0349
38 | CGUGCUUUGAGUACCCGAATT against TAT | inactive: 0.257
39 | CUAUUAUCCUUGCCGUAAATT against MTIF2 | inactive: 0.236
40 | GGGAAGAACAGAAUACUGATT against ZNF563 | inactive: 0.00283
41 | AGGCUACUGCGUGUACAUATT against SLC16A5 | inactive: -0.151
42 | GGAUUAUCCUGGACUCUGUTT against HPX | inactive: -0.451
43 | GAGAUAUUGUGGAAGGGAATT against GPR133 | inactive: -0.681
44 | GCUGGGAAGGGAUACCACATT against LTBP3 | inactive: -0.0236
45 | GUCUGGAGAUCAUAUUUUUTT against PIM3 | active: -1.01
46 | GCUCAGAAGCGGAAUCAGATT against SIGLEC10 | inactive: 0.0542

Row | Sequence | median seed-adjusted z-score
47 | GGAUCUAAAAUAUUGUUCATT against KIF4B | inactive: -0.0753
48 | GCUGCGUCAUAUUCAGUCATT against HERC5 | inactive: -0.422
49 | GAAAGUCGCUUUCUUUUUATT against FOXC1 | inactive: -0.447
50 | GCAAAGGAGUCGAGUAUAATT against CRYZ | inactive: -0.809
51 | GAACUUCAAUGGAAAACAUTT against L3MBTL4 | inactive: -0.189
52 | UGCUCUUCUUGGAUGGUGATT against QPCTL | inactive: -0.422
53 | CCUCAGAUCUACCCACAGATT against CSF2RB | inactive: -0.454
54 | AGACCCUGGUUAGACCAAATT against MDM2 | inactive: 0.258
55 | CUCCUCGAGUUAAUCAAAATT against TSSK1B | inactive: -0.169
56 | GACUCAACAUACACCCAGATT against NEGR1 | inactive: 0.194
57 | ACACCCAUCCUUAAGCUAATT against NXPH3 | inactive: 0.056
58 | GCGUGGAAAAUAUUCGUGATT against SMC1B | inactive: 0
59 | CCCUAAUCAUCAUCCAGGATT against ZSCAN4 | inactive: 0.617
60 | CAAUUACGGAACUCACAAATT against ZNF8 | inactive: 0.97
61 | CCUCCACAGUCAUAGCCUATT against SSH1 | inactive: 0.209
62 | AGAGUGCGGAUGAUGUGAATT against PVALB | inactive: 0.11
63 | CUAUCGAACUGGGAAACGATT against MDN1 | inactive: 0.187
64 | GGACUGUUGUAAUAACGGATT against UPP2 | inactive: 0.586
65 | GGAGAUAUGCAAAGCAGAATT against POU5F1 | inactive: 0.0495
66 | CCAGCUCAUCGUUCUCCUATT against CLCN7 | inactive: -0.28
67 | GGAUUGUUGUUCAUGAAUUTT against TLL1 | inactive: 0.396
68 | GAUAAUCAACGACUAUGAATT against CASP8 | inactive: 0.413
